Test results published in US7910102B2 (priority 2006, dated 2011).
“Also recorded” adds a separate entry of the source. For part of these data: At least one peptide structure holds a part that was inferred or is arguable (an end, a ring closure or a residue). For at least one compound, name, drawing or mass did not settle the structure. Some of these results come from one statement about several compounds together. Bridge positions count the residues as written; N and C are the ends. Peptide text beside a SMILES is read from it.

How the values were obtained:
[1] = test system: IL-2 production in human whole blood; format: cell-based; conditions: for IC50: read-out: Analogue Activity (IC50, pM) WB/IL-2
[2] = test system: IFNγ production, human PBMCs; format: cell-based
[3] = test system: IL-2 production, human PBMCs; format: cell-based
CD40L on CD4+ T cells = format: cell-based, human
IL-2R on CD4+ T cells = format: cell-based, human
[4] = test system: IFN-g production in human whole blood; format: cell-based
adoptive transfer EAE = conditions: rat, in vivo

Compound | IC50 [1] [pM] | inhibition of IFNγ production (in words) [2] | inhibition of IL-2 production (in words) [3] | block of thapsigargin-induced IL-2 production in human whole blood (in words) [1] | block of thapsigargin-induced upregulation of CD40L on T cells (in words) (CD40L on CD4+ T cells) | block of thapsigargin-induced upregulation of the IL-2R on T cells (in words) (IL-2R on CD4+ T cells) | block of thapsigargin-induced IFN-g production in human whole blood (in words) [4] | EAE score by the end of the study (adoptive transfer EAE) | average body weight lost (adoptive transfer EAE) [g] | onset of disease (adoptive transfer EAE) [days] | disease severity and survival (in words) (adoptive transfer EAE; sc)
CC[C@H](C)[C@@H]1NC(=O)[C@H](CCCCN)NC(=O)[C@@H](NC(=O)[C@H](CCCCN)NC(=O)[C@@H](NC(=O)[C@H](CC(N)=O)NC(=O)[C@@H](NC(=O)[C@@H](NC(=O)[C@@H](NC(=O)CN)C(C)C)[C@@H](C)CC)[C@@H](C)CC)C(C)C)CSSC[C@@H]2NC(=O)[C@H](CCCCN)NC(=O)CNC(=O)[C@H](CCC(=O)O)NC(=O)[C@H](CCCNC(=N)N)NC(=O)[C@H](CCSC)NC(=O)CNC(=O)[C@H](C)NC(=O)[C@H](CCCCN)NC(=O)[C@H](CCCCN)NC(=O)[C@@H]3CSSC[C@@H](C(=O)N[C@H](C(=O)N4CCC[C@H]4C(=O)N[C@@H](CCCCN)C(=O)O)[C@@H](C)O)NC(=O)[C@H](Cc4c[nH]cn4)NC(=O)[C@H](CSSC[C@H](NC(=O)[C@H](CCC(N)=O)NC(=O)[C@H](CCCNC(=N)N)NC(=O)[C@H](CO)NC1=O)C(=O)N[C@@H](CC(C)C)C(=O)N[C@@H](CCC(=O)O)C(=O)N1CCC[C@H]1C(=O)N3)NC(=O)[C@H](CCCCN)NC(=O)CNC(=O)[C@H](CC(N)=O)NC(=O)[C@H](CCSC)NC2=O [F25E] (H-GVIINVKCKISRQCLEPCKKAGMREGKCMNGKCHCTPK-OH; disulfide 8-28, 14-33, 18-35) | ≥ 100000 | – | – | – | – | – | – | – | – | – | –
CC[C@H](C)[C@@H]1NC(=O)[C@H](CCCCN)NC(=O)[C@@H](NC(=O)[C@H](CCCCN)NC(=O)[C@@H](NC(=O)[C@H](CC(N)=O)NC(=O)[C@@H](NC(=O)[C@@H](NC(=O)[C@@H](NC(=O)CN)C(C)C)[C@@H](C)CC)[C@@H](C)CC)C(C)C)CSSC[C@@H]2NC(=O)[C@H](CCCCN)NC(=O)[C@H](CCC(=O)O)NC(=O)[C@H](Cc3ccccc3)NC(=O)[C@H](CCCNC(=N)N)NC(=O)[C@H](CCSC)NC(=O)CNC(=O)[C@H](C)NC(=O)[C@H](CCCCN)NC(=O)[C@H](CCCCN)NC(=O)[C@@H]3CSSC[C@@H](C(=O)N[C@H](C(=O)N4CCC[C@H]4C(=O)N[C@@H](CCCCN)C(=O)O)[C@@H](C)O)NC(=O)[C@H](Cc4c[nH]cn4)NC(=O)[C@H](CSSC[C@H](NC(=O)[C@H](CCC(N)=O)NC(=O)[C@H](CCCNC(=N)N)NC(=O)[C@H](CO)NC1=O)C(=O)N[C@@H](CC(C)C)C(=O)N[C@@H](CCC(=O)O)C(=O)N1CCC[C@H]1C(=O)N3)NC(=O)[C@H](CCCCN)NC(=O)CNC(=O)[C@H](CC(N)=O)NC(=O)[C@H](CCSC)NC2=O [G26E] (H-GVIINVKCKISRQCLEPCKKAGMRFEKCMNGKCHCTPK-OH; disulfide 8-28, 14-33, 18-35) | ≥ 100000 | – | – | – | – | – | – | – | – | – | –
CC[C@H](C)[C@@H]1NC(=O)[C@@H](NC(=O)[C@H](CO)NC(=O)[C@@H](N)CCCNC(=N)N)CSSC[C@@H](C(=O)O)NC(=O)[C@H]([C@@H](C)O)NC(=O)CNC(=O)[C@@H]2CSSC[C@@H]3NC(=O)[C@H](CCC(N)=O)NC(=O)[C@H](Cc4ccccc4)NC(=O)[C@H](C)NC(=O)[C@H]([C@@H](C)O)NC(=O)[C@H](CSSC[C@H](NC(=O)[C@H](Cc4ccccc4)NC(=O)[C@H](CO)NC(=O)[C@H](CC(C)C)NC(=O)[C@H](CCCNC(=N)N)NC(=O)[C@H](Cc4ccc(O)cc4)NC(=O)[C@H](CCCCN)NC(=O)[C@H](CCSC)NC(=O)[C@H](CO)NC(=O)[C@H](Cc4c[nH]cn4)NC(=O)[C@H](CCCCN)NC3=O)C(=O)N[C@@H](CCCNC(=N)N)C(=O)N[C@@H](CCCCN)C(=O)N[C@@H]([C@@H](C)O)C(=O)N2)NC(=O)[C@H](CCCNC(=N)N)NC(=O)[C@H](CO)NC(=O)[C@H](CCCCN)NC(=O)[C@@H]2CCCN2C(=O)[C@H]([C@@H](C)CC)NC(=O)[C@H]([C@@H](C)O)NC(=O)[C@H](CC(=O)O)NC1=O [ShK[1-35]] | – | only a partial inhibition | only a partial inhibition | suppressed; also recorded: potently blocked IL-2 secretion | suppressed | suppressed | suppressed | ≥ 5.5 | 30 | 4 | developed severe disease and died
